From PMC5744976
No constants are given. Whether binding was seen depends on the method and setting. Binding seen in cells or lysates may run through a third protein. A yes stands for co-enrichment or nearness to the bait. Other partners may have been found.

Sequences of proteins named here, by UniProt entry; tags and fusion partners are left off. A change or cut given only in a name is not applied to a line headed by its entry.
UniProt P08985: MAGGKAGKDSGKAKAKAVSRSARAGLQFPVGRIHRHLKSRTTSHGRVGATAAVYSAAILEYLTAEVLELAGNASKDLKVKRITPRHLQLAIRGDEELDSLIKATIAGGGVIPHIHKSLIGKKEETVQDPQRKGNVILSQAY
UniProt P21187: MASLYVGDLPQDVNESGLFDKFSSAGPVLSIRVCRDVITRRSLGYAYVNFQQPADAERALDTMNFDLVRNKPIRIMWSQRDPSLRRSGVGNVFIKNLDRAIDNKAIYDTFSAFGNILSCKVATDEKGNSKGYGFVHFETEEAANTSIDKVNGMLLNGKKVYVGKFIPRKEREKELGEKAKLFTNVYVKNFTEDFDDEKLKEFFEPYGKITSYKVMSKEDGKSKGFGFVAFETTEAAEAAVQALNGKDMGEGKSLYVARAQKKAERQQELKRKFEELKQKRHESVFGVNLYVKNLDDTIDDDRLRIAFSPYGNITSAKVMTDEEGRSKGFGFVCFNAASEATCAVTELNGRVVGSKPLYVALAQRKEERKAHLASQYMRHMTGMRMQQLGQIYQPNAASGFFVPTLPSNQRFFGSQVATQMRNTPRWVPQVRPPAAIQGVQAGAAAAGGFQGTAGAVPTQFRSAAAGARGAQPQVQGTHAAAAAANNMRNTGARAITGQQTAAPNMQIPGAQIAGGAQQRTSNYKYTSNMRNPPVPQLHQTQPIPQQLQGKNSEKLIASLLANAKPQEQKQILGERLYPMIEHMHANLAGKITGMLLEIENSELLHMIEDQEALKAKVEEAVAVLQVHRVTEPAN
UniProt Q26365: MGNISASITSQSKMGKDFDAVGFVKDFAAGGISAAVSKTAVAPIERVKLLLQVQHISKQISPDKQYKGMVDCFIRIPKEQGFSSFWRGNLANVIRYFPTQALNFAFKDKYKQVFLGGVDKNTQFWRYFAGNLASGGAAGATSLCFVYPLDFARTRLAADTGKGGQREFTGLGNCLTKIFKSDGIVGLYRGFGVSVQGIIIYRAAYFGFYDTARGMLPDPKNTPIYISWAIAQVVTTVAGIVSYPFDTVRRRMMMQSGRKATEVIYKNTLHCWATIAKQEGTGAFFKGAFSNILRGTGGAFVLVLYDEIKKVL

B1: Negative Elongation Factor A (protein, UniProt Q86NP2 1-1251)
chain: MANVRDSDTSLWLHNKLGTSNDSWINGSICSQLNKEVLRNIKECFPDLQTQVKLKLLLSFLHIPRRLVEEWKAELEEVIEVAGLDSELWVSMLAETMKTFPATSSLNTEISDYEDTRPIFIDMVNDLRKLVTKHSDLGMLPLECQYLNKNALISVVGQQPAPVKHFTLKRKPKSAQLRTELLHKSADAQSSLKKASAPTIPLRSRGMPRKMTDTTPLKGIPSRMPTTGFRSATVPGNAAQRPNLSRTPAGRKDGGIKLIEFTEQPLGYAAAKKRKREQQLEEQQKKQEQKQQQAAAAAAAAATAAASNAGDSSPTDAATASGGETPVTPTSANNSFEIKMEPQQLNQSAGSLEEPQDDEMSGKANMECDIETPEYATATLDFAQATSTSVADGQPGKPAVETKLKTPRTPKSAAKLNNNNNNNNNNSFNHTPKRIKQEIEIKSEEIIVPASIKLEKIETSPSTQRVSIQQQPPSLVQRTPHLLIRSSPQKRQNNGATTSAGTTTTTVGNTTIKMEKLDIKPMIRATGVSPSTSAGTTTTLLTPQQLRQAANPLANLPNNISVKITSAKAKAAAAAAATSSGSQTQSQQPQTLQVQQAPQQSHPPLLINSSTPVILASSPSAQRAKALALPSSSTSATTTTTIPSQAIKTMPLSQLKTATNSGPVIISQTIIQPAKRAQQQAGTSSAAAASQQQQQQQSQQQLLHQQIQQQTQQQAQLPQQPQQQQTQYILATPQQQPQQIQQQQQQQQPILPTLTSFSHSRPMPQTTTLYQATTPSGSGQTPTKILLKTSGSSSVVMTPLRQAQPQQATAVVSSNPPPLVATSAAVVSPGQTTLNIQNVQLPNRPVTIQPASQAAQQQHMQAQLQQQQPHPQHTIVANTTATQQPKLSQVLMQPTAAVGTSGVSALNVSPTSGKNKTIILTQKGVILRNIGGDMYQQIPISNVGNMQGLGGTTLMTTTAGPPSLVKTTPSSGVQLQQQQSGKQILPTLIPTSSLGGQHVIVQQQQPTNVIGNSQQQTIIRPVMTNVGGGLTTLPQGLTLIQRPGQQPQLVQVQAAPGSTQRTIITQSNTAAAASQQQPRQQQQQILVQHKPAPTLQQRLVTSTTSGGQGQQGNPNAGLPRTVQVQVQAQQQQQPQQQQATQQQSQQAPQRRGLSLSNEHVHKAHEMFRKANRVSRPDKALILGFMAGLRENPRPNNENVLVIKLGETEEKVQQDNGHTALCLVESHIRLDYNTGEWKTFQNYRLQDQSAAS
B2: Clueless (protein, UniProt A1ZAB5 1-1448)
chain: MALETEAKNSNATATGDATATATKASGKAKENNNTAGGKKNLNPNSNQQNSNQNLVNGNGTAADGPAAKKKGKKNRNKSPTEPTTEAVLSNGHAEKPTVVDAVEDNADTNANVEKPQEGGAPDAEADGDDIDLDALQDIGITVNISSPGADLLCVQLSSMELVQEIHQLLMDREETCHRTCFSLQLDNVTLDNFAELKSINNLEQGSTIKVVEEPYTMREARIHVRHVRDLLKNLDPADAYNGIDCTSLTYLNTITQGDLLDKKRTRPDSVDCTPPEYVTPGVSDPPILPLHPNVKNAKGPQALKVLTTSAWNPPPGPRKLHGDLMYLYVVTMEDKRFHISACSKGFFINQSTDDTFNPKPDNPSHLSHSLIDLLSHISPSFRRAFQTIQKRRTMRHAFERVATPYQVYQWAAPILEHTVDAIRAEDAFSSKLGYEEHIPGQTRDWNEELQTTRELPRKTLPERLLRERAIFKVHGDFVTAATRGAMAVIDGNVLAINPGEDTKMQMFIWNNIFFSMGFDVRDHYKELGGDAAAFVAPRYDLHGVRVYNAVDIEGLYTLGTVVVDYRGYRVTAQSIIPGILEREQEQSVVYGSIDFGKTVLSHPKYLELLRQAGKHLKILPHVVLNERDEPVELCSSVECKGIIGNDGRHYILDLLRTFPPDVNFLKLQDVQLSKELVDMGFPIEHRHKLCCLRQELLEAFIEDRHVNFIRIAAARLQQLTTIKQSEKSEANPVPALEGAEAASKVNGAEKPDDKEKKNEEEEKKERSTSGEARAAAIVNAIREAQSNVATSNEVQAAEVVKRACAAVGSLKEKEFDFRFNPDVFSPGIRHADGEEGTSLAKQKVLVQEAAEFLVLKQIPAFIKEHMSHSSSPIDGQSLTESLHSHGINVRYLGKVIKILSQMPRMDYLHRIAVLELIVRATKHIYYTYMQNTEPLHLSAAISHFLNCLLTNGPVNPAVSSEEAHKKRGNGGKHNKHKSSKGGKGQQQQQTTGNQNGSSSGSSNSSSASDWTLMTPRSLWQQIRKEAKVYWDWELDCDSIETAVSKYGILRISLMRAFCLKVGIQVLLREYNFESKHKPTFGDDDIVNVFPIVKHISPRATDAYNFYTTGQAKIQQGLFKEGYELISGALNLLNNVFGALHQENGSCLRMLARLSYLLGDAQDALAIQQRAVIMSERVNGMDHPSTILEYTHLSLYSFANGHVGMSLKLLYRARYLMVLICGEDHPEVALIDSNISLILHALGEYELSLRFIEHALKLNLKYFGDKDMHVALSYHLMARTQSCMGDFRSALNNEKETYSFYKSQLGENHEKTRDSAECLRLLTQQAVLLQRKMNDIYSSGKLTSDLPPIHITPPSMGSVLDMLNTINGILFVKISRKDIVKVRSEIEKHFKTDSTENEVNDAINSIVAAANNNGEAEDAVSKDIKEQPEAGKQLTNGDKAAATEATSS
B3: Alan Shepard (protein, UniProt Q8MSV2 1-590)
chain: MHPRYSPAPPPQQQQQMGGPPHQQQGGGGGGGVSMRGPSNAQQLPPQIPRSQNYSNGSSSSAAAAPLTSRSAFPGAPLTASAVALKGALPQRPPAMTSPAAAAAGAALAAGAPYRGAASWTPQGYAPAAAAAAAAVAQQAAYRYTAPLPQPAYAAYTPHTATTPATTTVSFLSQPVDYYWYGQRVPTAASPSNTNSSSSSNTGSQSGTLSTSLSNTTNTNTNMGPNGTVQNQNQQGGEQLSKTNLYIRGLQQGTTDKDLVNMCAQYGTIISTKAILDKTTNKCKGYGFVDFEQPAFAECAVKGLQGKGVQAQMAKQQEQDPTNLYIANLPPHFKETDLEAMLSKYGQVVSTRILRDQQMNSKGVGFARMESREKCEQIIQMFNGNTIPGAKDPLLVKFADGGPKKKNLFKTPDPNARAWRDVSAEGIPVAYDPTMQQNGVSVNVGTPIGVPYSRFSAPQVGGYPVAGSQWIPGYMMTQVDDQTSYSPQYMQMAAAPPLGVTSYKPEAVNQVQPRGISMMVSGDTGVPYGTMMPQLATLQIGNSYISPTYPYYAPPPTIIPTMPMTDSEQASTAASPDEAYTQYPHQAAPK
B4: Modulo (protein, UniProt P13469 1-542)
chain: MAQKKAVTVKGKKATNGEEKPLAKRVTKSTKVQEEETVVPQSPSKKSRKQPVKEVPQFSEEDESDVEEQNDEQPGDDSDFETEEAAGLIDDEAEEDEEYNSDDEEDDDDDELEPGEVSKSEGADEVDESDDDEEAPVEKPVSKKSEKANSEKSEENRGIPKVKVGKIPLGTPKNQIVFVTNLPNEYLHKDLVALFAKFGRLSALQRFTNLNGNKSVLIAFDTSTGAEAVLQAKPKALTLGDNVLSVSQPRNKEENNERTVVVGLIGPNITKDDLKTFFEKVAPVEAVTISSNRLMPRAFVRLASVDDIPKALKLHSTELFSRFITVRRISQESISRTSELTLVVENVGKHESYSSDALEKIFKKFGDVEEIDVVCSKAVLAFVTFKQSDAATKALAQLDGKTVNKFEWKLHRFERSTSGRAILVTNLTSDATEADLRKVFNDSGEIESIIMLGQKAVVKFKDDEGFCKSFLANESIVNNAPIFIEPNSLLKHRLLKKRLAIGQTRAPRKFQKDTKPNFGKKPFNKRPAQENGGKSFVKRARF
B5: Squid (protein, UniProt Q08473 1-344)
chain: MAENKQVDTEINGEDFTKDVTADGPGSENGDAGAAGSTNGSSDNQSAASGQRDDDRKLFVGGLSWETTEKELRDHFGKYGEIESINVKTDPQTGRSRGFAFIVFTNTEAIDKVSAADEHIINSKKVDPKKAKARHGKIFVGGLTTEISDEEIKTYFGQFGNIVEVEMPFDKQKSQRKGFCFITFDSEQVVTDLLKTPKQKIAGKEVDVKRATPKPENQMMGGMRGGPRGGMRGGRGGYGGRGGYNNQWDGQGSYGGYGGGYGGYGAGGYGDYYAGGYYNGYDYGYDGYGYGGGFEGNGYGGGGGGNMGGGRGGPRGGGGPKGGGGFNGGKQRGGGGRQQRHQPY

What was measured:
[1] = biological target: T1, Chromatin-Linked Adapter for MSL Proteins (CLAMP) (D. melanogaster (endogenous in S2 and Kc cells)) (UniProt Q9V9N4); assay: affinity purification with mass spectrometry; ChIP-MS: nuclei of S2 cells cross-linked with 1% formaldehyde, sonicated solubilized chromatin, anti-CLAMP antibody overnight at 4°C, Protein A agarose beads; IgG control; peptides detected in one of two S2 replicates
T1 sequence: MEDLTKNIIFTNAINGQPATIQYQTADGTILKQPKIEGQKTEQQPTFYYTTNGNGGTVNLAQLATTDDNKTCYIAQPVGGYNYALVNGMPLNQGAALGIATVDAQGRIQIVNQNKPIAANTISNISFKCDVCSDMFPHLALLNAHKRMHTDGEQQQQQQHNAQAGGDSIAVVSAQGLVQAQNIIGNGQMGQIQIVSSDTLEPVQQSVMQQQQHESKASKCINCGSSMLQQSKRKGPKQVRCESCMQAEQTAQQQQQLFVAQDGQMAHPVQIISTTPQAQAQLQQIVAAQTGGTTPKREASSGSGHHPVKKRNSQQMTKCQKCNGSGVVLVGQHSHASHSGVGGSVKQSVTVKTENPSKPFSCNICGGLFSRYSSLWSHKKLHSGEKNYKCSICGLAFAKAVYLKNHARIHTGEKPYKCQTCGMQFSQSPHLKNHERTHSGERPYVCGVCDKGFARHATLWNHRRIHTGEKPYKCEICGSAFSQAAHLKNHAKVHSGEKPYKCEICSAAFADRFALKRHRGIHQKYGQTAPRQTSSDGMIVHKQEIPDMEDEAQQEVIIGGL

[2] = biological target: T1, Chromatin-Linked Adapter for MSL Proteins (CLAMP) (D. melanogaster (endogenous in S2 and Kc cells)); assay: affinity purification with mass spectrometry; non-crosslinked; anti-CLAMP antibody coupled to magnetic Dynabeads, nuclear extract of S2 (male) and Kc (female) cells, 1 hour at 4°C, washes with 50mM Tris, 500mM NaCl, 0.1% NP-40; IgG control; two biological replicates per cell type

Molecule | binding [1] | binding [2]
Histone H2A.v (from UniProt P08985 1-141) | binds | binds
Polyadenylate-binding protein (from UniProt P21187 1-634) | binds | binds
Stress-sensitive B (from UniProt Q26365 1-312) | binds | binds
Syncrip | binds | binds
B1 | binds | binds
B2 | binds | binds
B3 | binds | 
B4 | binds | binds
B5 |  | binds
